# From PubChem BioAssay (NCATS)
# “And” between values parts separate entries of the source, which are not always exact repeats. Identical values can stand only once. Some of the results follow. The main result of the screen is listed elsewhere. These columns were measured beside it and carry no call. For some of these results: The list favours compounds with an active or inconclusive main result. For some of these results: Words in brackets tell the shape of the fitted curve; partial curves, single points and poor fits give uncertain potencies.
# Experiments:
# [1] = Validation of Assay for Modulators of Lamin A Splicing (AID 1459); conditions: Lamin A splicing dual RFP/GFP fluorescence reporter, ratio
# In short: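 S3 HeLa cells stably expressing a lamin A-EGFP splicing minigene and DsRed2 were seeded at 600 cells/well in Opti-MEM with 2% FBS, pin-dosed, and incubated 48 hrs at 37 °C, 5% CO2. Laser-scanning cytometry (488 nm) gave GFP/RFP total intensity ratio.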
# [2] = qHTS Assay for Lipid Storage Modulators (AID 1519); conditions: Drosophila S3 cells, BODIPY lipid droplet/cell ratio, laser cytometry, cells loaded with oleic acid
# In short: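 Cells seeded at 5,000 per well were treated with compounds over a concentration series and loaded with oleic acid (400 uM, as added). Lipid droplet fluorescence (488 nm excitation, 500-530 nm channel) was read by laser-scanning cytometry and normalized to 20 uM Triacsin C.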
# [3] = qHTS Assay for Modulators of Human Peripheral Myelin Protein 22 (PMP22) Expression/Activity (AID 1967); conditions: Cell-based PMP22 reporter, dual-color luciferase ratio
# In short: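 MSC80 mouse Schwann cells stably carrying Pmp22 promoter–green click beetle luciferase plus EF-alpha–red luciferase control were dosed for 24h at 37 °C. Dual-colour luminescence was filter-overlap corrected; %Activity came from green/red ratio versus untreated cells.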
# [4] = qHTS Validation Assay to Find Inhibitors of Chronic Active B-Cell Receptor Signaling (AID 485345); conditions: ABC-DLBCL cells, chronic BCR signaling reporter
# In short: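 TMD8 ABC-DLBCL cells stably carrying doxycycline-inducible IkappaBalpha–green luciferase fusion plus unfused red luciferase; compounds 46 uM to 3 nM, 4 h at 37C with doxycycline. Corrected green/red luminescence ratio normalized to 10 uM MG-132 and basal cell wells; curves fitted.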
# [5] = qHTS assay for small molecule antagonists of peroxisome proliferator-activated receptor delta signaling (AID 588535); conditions: HEK293T PPARd-UAS-bla, beta-lactamase FRET ratio, 18 h; 460 nm channel;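 note: cells co-treated with a PPAR-delta agonist as stimulator during compound exposure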
# In short: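 Antagonist-mode beta-lactamase reporter (GeneBLAzer PPAR-delta-UAS-bla) in HEK293T cells, 2% charcoal/dextran FBS, 4000 cells/well. Compound titrations, 18 h at 37 C; CCF4 ratio read, IC50 and efficacy from Hill fits.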
# [6] = qHTS assay for small molecule antagonists of peroxisome proliferator-activated receptor gamma signaling (AID 588537); conditions: HEK293 PPARg-UAS-bla, beta-lactamase ratio, antagonist mode; measured here: W460 blue channel
# In short: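 PPARγ-UAS-bla HEK293 cells (3000/well) in 1% charcoal/dextran-stripped FBS are treated with compound, then stimulated with 50 nM rosiglitazone for 16 h at 37 °C. Read-out is CCF4 β-lactamase fluorescence after 2 h at RT. IC50 comes from Hill fits normalised to rosiglitazone and DMSO.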
# [7] = qHTS assay for small molecule antagonists of retinoid X receptor alpha signaling (AID 588546); conditions: HEK293T RXRa-UAS-bla, beta-lactamase ratio, antagonist mode; measured here: W530 green channel, cytotoxicity proxy;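 note: cells stimulated with 9-cis-retinoic acid as agonist; % is set by controls: 0 for no effect and ±100 for the full control effect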
# In short: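 Beta-lactamase reporter inhibition, read as CCF4 fluorescence ratio (ex 405, em 460/530 nm) after 2 h at RT. HEK293T UAS-bla cells, 2500/well, were stimulated with 9-cis-RA at 500 or 100 nM final alongside test compound for 18 h at 37 C.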
# [8] = qHTS drug screen for cell cycle checkpoint inhibitors in PARPi-resistant BRCA-mutant ovarian cancer cell lines. (AID 1963452); conditions: PEO1/OlaR viability, CellTiter-Glo luminescence, 96 h
# In short: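 PEO1, PEO4 and PEO1/OlaR ovarian cancer cells, 600 per well, exposed 96 h at 37C to a dilution series. Viability read by CellTiter-Glo luminescence, normalized to DMSO and empty wells; activity summarized as Z-AUC.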
# [9] = Nrf2 qHTS screen for inhibitors: Validation (AID 493153); conditions: A549 ARE-Fluc reporter, 18-24 h; AC50: CellTiter-Fluor fluorescence read, measured here: cytotoxicity CellTiter-Fluor AC50; viability change: measured here: cytotoxicity max response
# In short: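 A549 cells carrying ARE-firefly luciferase reporter, 5000 cells/well in 5% FBS OPTI-MEM, treated with compound over a concentration series for 18-24 h at 37 C. Luciferase luminescence gave Nrf2 activity; CellTiter-Fluor fluorescence gave viability.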
# [10] = measured here: cell count channel max response
# [11] = measured here: cell number channel AC50
# [12] = measured here: lipid (BODIPY) channel AC50
# [13] = measured here: lipid channel max response
# [14] = measured here: green reporter channel AC50, mouse Pmp22 promoter in mouse Schwann cells
# [15] = measured here: red reporter channel AC50, EF-alpha promoter control reporter in MSC80 mouse Schwann cells
# [16] = measured here: CBG/CBR ratio read-out
# [17] = measured here: CBR control luciferase (viability counter)
SMILES,AC50 ([1]; measured here: GFP channel),AC50 ([1]; measured here: RFP channel),"max response [2, 10]","AC50 [2, 11]","AC50 [2, 12]","max response [2, 13]","AC50 [3, 14]","AC50 [3, 15]","AC50 [4, 16]","AC50 [4, 17]",max response [5] [%],AC50 [6],max response [7] [%],AC50 ([8]; measured here: PEO1 parental viability),AC50 ([8]; measured here: PEO4 viability),viability change [9] [%]
CC(C)N(CCC(=O)c1ccc2ccccc2c1)Cc1ccccc1,"10 µM [falling, partial curve]","10 µM [falling, partial curve]",33.8% and -99.2%,"7.08 µM [rising, full curve, poor fit] and 14.1 µM [falling, partial curve, poor fit]","25.1 µM [falling, partial curve, poor fit] and 12.6 µM [falling, partial curve, poor fit]",-80% and -103%,"26.9 µM [falling, full curve]","21.3 µM [falling, full curve]","4.61 µM [falling, single point]","9.2 µM [falling, partial curve]",,,,,,
CCCCN1CCC(COC(=O)c2cc(Cl)c(N)c3c2OCCO3)CC1,"35.5 µM [falling, single point]","35.5 µM [falling, single point]",-38.2%,"39.8 µM [falling, single point]","39.8 µM [falling, single point]",-34.4%,,"95.3 µM [falling, single point]",,,,,,,,
COc1ccc(NC(=O)c2ccc(-c3ccc(-c4noc(C)n4)cc3C)cc2)cc1N1CCN(C)CC1,"20 µM [falling, single point]","15.8 µM [falling, partial curve]",23.2% and -76.3%,"7.94 µM [falling, full curve, poor fit]","7.94 µM [falling, full curve, poor fit]",-24.6% and -86%,"15.1 µM [falling, full curve]","16.9 µM [falling, full curve]","18.4 µM [falling, single point]","2.31 µM [rising, full curve]",,,,,,
C[C@]12CC[C@@H]3c4ccc(O)cc4CC[C@H]3[C@@H]1CC[C@@H]2O,"3.55 µM [rising, single point]","3.55 µM [rising, single point]",-6.81%,"1.58 µM [falling, full curve, poor fit]","1.78 µM [falling, full curve, poor fit]",-4.35%,,"67.5 µM [falling, partial curve, poor fit]","16.4 µM [falling, partial curve]","25.9 µM [rising, single point]",-40.4,"44.7 µM [falling, partial curve, poor fit]",2.86,"24.5 µM [falling, single point]","15.5 µM [falling, single point]",
COc1ccc2c(c1)c(CC(=O)O)c(C)n2C(=O)c1ccccc1,"6.31 µM [falling, single point]","6.31 µM [falling, single point]",-37.3%,"7.94 µM [falling, full curve, poor fit]","7.94 µM [falling, full curve, poor fit]",-38.8%,,,,,,,,,,7.26
C[N+](C)(C)CCC(=O)c1cccc2ccccc12,"22.4 µM [falling, partial curve]","1.12 µM [falling, full curve]",-67.6%,"10 µM [falling, full curve]","8.91 µM [falling, full curve]",-77.9%,"26.9 µM [falling, full curve]","33.8 µM [falling, full curve]",,,,,,,,
Nc1nc(Cl)nc2c1ncn2[C@@H]1O[C@H](COP(=O)(O)OP(=O)(O)OP(=O)(O)O)[C@H](O)[C@H]1O,"28.2 µM [falling, single point]","14.1 µM [falling, partial curve]",0.216%,"3.55 µM [falling, full curve]","3.98 µM [falling, full curve, poor fit]",2%,"19 µM [falling, full curve]","19 µM [falling, full curve]",,,,,,,,
[N-]=[N+]=Nc1ccc(C(=O)CSC[C@H](NC(=O)CC[C@H](N)C(=O)O)C(=O)NCC(=O)O)cc1,"0.794 µM [rising, full curve]","0.794 µM [rising, full curve]",-35.1%,"1.41 µM [falling, full curve, poor fit]","1.41 µM [falling, full curve, poor fit]",-33.8%,"67.5 µM [falling, partial curve]","21.3 µM [falling, partial curve, poor fit]",,,,,,,,3.1
